In patent publication US20220041711A1:
No constants are given. Whether binding was seen depends on the method and setting. Some entries that bind do so weakly or less than the wild type.

Legend:
[1] = biological target: T1, mouse LAIR-1-hFc (Sino Biological) (mouse) (UniProt Q8BG84); assay: blocking of mouse LAIR-1-hFc (2 µg/mL, pre-incubated with antibody): ELISA on coated mouse collagen type 1 (left) and flow cytometry on HEK-293T cells with mouse MARCO (right)
T1 sequence: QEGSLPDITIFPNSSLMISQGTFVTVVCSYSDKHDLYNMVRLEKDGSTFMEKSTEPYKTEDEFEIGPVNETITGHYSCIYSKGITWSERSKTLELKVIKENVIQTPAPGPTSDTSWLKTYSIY

[2] = biological target: T2, mouse LAIR-1 (form in the assay not stated) (mouse) (UniProt Q8BG84); assay: ELISA and FACS screening
T2 sequence: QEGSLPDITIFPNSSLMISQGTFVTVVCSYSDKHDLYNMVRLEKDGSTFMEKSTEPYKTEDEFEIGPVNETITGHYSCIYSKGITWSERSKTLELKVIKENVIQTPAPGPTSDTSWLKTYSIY

[3] = biological target: human LAIR-1-CD3ζ chimeric receptor on NFAT-GFP reporter cells (human) (UniProt P20963); assay: flow cytometry on human LAIR-1 reporter cells, PE anti-human Fc secondary, MFI (panel Human LAIR1 Cells)
[4] = biological target: human LAIR-1-CD3ζ chimeric receptor on NFAT-GFP reporter cells (human) (UniProt P20963); assay: flow cytometry on reporter cells, dose-response
[5] = biological target: cyno LAIR-1-CD3ζ chimeric receptor on NFAT-GFP reporter cells (cynomolgus monkey; human) (UniProt P20963); assay: flow cytometry on reporter cells, dose-response
[6] = biological target: human LAIR-1-CD3ζ chimeric receptor on NFAT-GFP reporter cells (human) (UniProt P20963); assay: flow cytometry on cells
[7] = biological target: cyno LAIR-1-CD3ζ chimeric receptor on NFAT-GFP reporter cells (cynomolgus monkey; human) (UniProt P20963); assay: flow cytometry on cells
[8] = biological target: cyno LAIR-1-CD3ζ chimeric receptor on NFAT-GFP reporter cells (cynomolgus monkey; human) (UniProt P20963); assay: flow cytometry on cyno LAIR-1 reporter cells, PE anti-human Fc secondary, MFI (panel Cynomolgus Monkey LAIR1 Cells)

Measured: binding

B1: anti-mouse LAIR-1 antibody 43H2 (antibody, V domains shown)
VH: EVQLVESGGGLVQPGRSLKVSCAASGFTFSNYGIHWIRQAPTKGLEWVASISPSGRSTYFRDSVKGRFTISRDNAKNTLYLQLDSLRSEDTATYYCATGINYSSFDYWGQGVMVTVSS
VL: DIVMTQSPTSMSISVGDRVTMNCKASQNVGSHVDWYQQKTGQSPKLLISTASNRYTGVPDRFTGSGSGTDFTFTINNMQTEDLAVYYCMQSNSYPPTFGGGTKLELK
binds: [1] | [2]

B2: anti-LAIR-1 antibody ch47H1 (antibody, V domains shown)
VH: EVQLVETGGGLVQPKGSLKLSCAASGFTFNINAMNWVRQAPGKGLEWVARIRTKNNNYATFYADSVKDRFTISRDDSQSMLYLQMNNLKTDDTAMYYCVRDRAGFFAYWGQGTPVTVSA
VL: DIQMTQSPASQSASLGESVTITCLASQTIGTWLGWYRQKPGKSPQLLIYAATSLADGVPSRFSGSGSGTKFSFKISSLQAEDFVIYYCQQLYSTPLTFGSGTKLEIK
not listed: [1] | [2]
binds: all other assays above

B3: humanized anti-LAIR-1 antibody Hz47H1.v4 (antibody, human IgG1, kappa, N297G, V domains shown)
VH: EVQLVESGGGLVQPGGSLRLSCAASGFTFNINAMNWVRQAPGKGLEWVARIRTKNYNYATFYADSVKDRFTISRDDSKNSLYLQMNSLKTEDTAVYYCVRDRAGFFAYWGQGTTVTVSS
VL: DIQMTQSPSSLSASVGDRVTITCLASQTIGTWLGWYQQKPGKAPKLLIYAATSLAEGVPSRFSGSGSGTDFTLTISSLQPEDFATYYCQQLYSTPLTFGGGTKVEIKR
not listed: [1] | [2]
binds: all other assays above
